Results reported in patent US6908730B2, “Silver halide material comprising low stain antenna dyes” (Eastman Kodak Company, priority 2003, dated 2005).

How the values were obtained:
[1] = Granularity readings on processed strips; conditions: for Relative Granularity: relative granularity at Dmin, each g.u. represents a 5% change, negative = less grainy
Method: Film coating evaluations were carried out in color format on a sulfur-and-gold sensitized 2.6 μm×0.13 μm silver bromide tabular emulsion containing 3.7 mole % iodide. Three emulsion melts were prepared. Each emulsion was heated to 43° C. and sodium thiocyanate (100 mg/Ag mole) was added. After a 5′ hold, 3-(2-methylsulfamoylethyl)-benzothiazolium tetrafluoroborate (35 mg/Ag mole) was added followed by a 2′ hold. Then the first sensitizing dye, I-1 was added. After a 20′ hold, the second sensitizing dye, I-2, was added with a subsequent 10′ hold. This was followed by the addition of sodium aurous dithiosulfate dihydrate (1.89 mg/Ag mole). After a 2′ hold, sodium thiosulfate pentahydrate (0.84 mg/Ag mole) was added, followed by a 2′ hold. The emulsion was held for 15′ at 60° C. After cooling to 43° C., 1-(3-acetamidophenyl)-5-mercaptotetrazole (25 mg/Ag mole) was added with a subsequent hold for 2′. Then either no dye was added (Example 1—1) or 1.3 mmole/mole-Ag of either antenna dye C-1 (Example 1-2) or antenna dye II-1 (Example 1-3) was added followed by a 30′ hold. Next, (2,5-dihydroxy-4-(1-methylheptadecy)-benenesulfonic acid, sodium salt) was added followed by a 2′ hold. This was followed with the addition of Aerosol-OT and a 2′ hold. Then, 4-hydroxy-6-methyl-1,3,3a,7-tetraazaindene, sodium salt, monohydrate, (1 g/Ag mole) was added and then held for 5′. The melt was subsequently chilled at 5° C. Before coating, the emulsion was combined with gelatin and distilled water; and subsequently heated to 40° C. to mix components. Single-layer coatings were made on acetate support. Silver laydown was 807 mg/m^2 (75 mg/ft^2). The silver melt was combined with a coupler dispersion containing a magenta forming coupler M-1 at a laydown of 226 mg/m^2 (21 mg/ft^2). Gelatin laydown was 3228 mg/m^2 (300 mg/ft^2). A hardened overcoat was at 2690 mg/m^2 (250 mg/ft^2) gelatin. […] Granularity readings on processed strips were made according to procedures described in the SPSE Handbook of Photographic Science and Engineering, edited by W. Thomas, pp. 934-939. […]

[2] = Test for dye stain (developer-free pH-10 buffer, bleach-wash-fix-wash); conditions: for Relative Stain: 1.3 mmole/mole-Ag antenna dye, density, status M filter, relative to comparison example with only one dye layer
Method: Film coating evaluations were carried out in color format on a sulfur-and-gold sensitized 2.6 μm×0.13 μm silver bromide tabular emulsion containing 3.7 mole % iodide. Three emulsion melts were prepared. Each emulsion was heated to 43° C. and sodium thiocyanate (100 mg/Ag mole) was added. After a 5′ hold, 3-(2-methylsulfamoylethyl)-benzothiazolium tetrafluoroborate (35 mg/Ag mole) was added followed by a 2′ hold. Then the first sensitizing dye, I-1 was added. After a 20′ hold, the second sensitizing dye, I-2, was added with a subsequent 10′ hold. This was followed by the addition of sodium aurous dithiosulfate dihydrate (1.89 mg/Ag mole). After a 2′ hold, sodium thiosulfate pentahydrate (0.84 mg/Ag mole) was added, followed by a 2′ hold. The emulsion was held for 15′ at 60° C. After cooling to 43° C., 1-(3-acetamidophenyl)-5-mercaptotetrazole (25 mg/Ag mole) was added with a subsequent hold for 2′. Then either no dye was added (Example 1—1) or 1.3 mmole/mole-Ag of either antenna dye C-1 (Example 1-2) or antenna dye II-1 (Example 1-3) was added followed by a 30′ hold. Next, (2,5-dihydroxy-4-(1-methylheptadecy)-benenesulfonic acid, sodium salt) was added followed by a 2′ hold. This was followed with the addition of Aerosol-OT and a 2′ hold. Then, 4-hydroxy-6-methyl-1,3,3a,7-tetraazaindene, sodium salt, monohydrate, (1 g/Ag mole) was added and then held for 5′. The melt was subsequently chilled at 5° C. Before coating, the emulsion was combined with gelatin and distilled water; and subsequently heated to 40° C. to mix components. Single-layer coatings were made on acetate support. Silver laydown was 807 mg/m^2 (75 mg/ft^2). The silver melt was combined with a coupler dispersion containing a magenta forming coupler M-1 at a laydown of 226 mg/m^2 (21 mg/ft^2). Gelatin laydown was 3228 mg/m^2 (300 mg/ft^2). A hardened overcoat was at 2690 mg/m^2 (250 mg/ft^2) gelatin. The described elements were processed for 3.25′ in the known C-41 color process. Sensitometric exposures (0.01 sec) were done using tungsten light with filtration to stimulate a daylight exposure. […]

Structure (SMILES) | granularity compared with dye C-1 ([1]; in words) | Relative Granularity [1] [g.u.] | Relative Stain [2] | lower dye stain than emulsion having antenna dye C-1 ([2]; emulsion 1-3 versus emulsion 1-2) [%]
C[N+](CCO)(CCO)CCCN1/C(=C/C=C(\C#N)C(=C(C#N)C#N)c2ccccc2)Oc2ccc(-c3ccccc3)cc21 [II-1] | lower granularity | −2 | 0.021 | ~30
C[N+](C)(C)CCCN1/C(=C/C=C(\C#N)C(=C(C#N)C#N)c2ccccc2)Oc2ccc(-c3ccccc3)cc21 [Dye C-1, reference compound] | – | 0 | 0.031 | –
